Measurements reported in patent publication US5372944A, “Method for conversion of halogenated hydrocarbons to halohydrins” (The Dow Chemical Company, priority 1993, dated 1994).

Test system: double mutants lacking both ADH and halohydrin dehalogenase activity
Experiment: Whole cell conversion of DCP, DCB and TCP by double mutants: kinetics, selectivity, enantioselectivity
Type: cell-based, Rhodococcus species
Settings: for preferential conversion of one enantiomer: ADH negative mutants of TDTM-003 or double mutants
Protocol: To evaluate kinetics and selectivity of various mutants with respect to conversion of the target halocarbons, 1,2-dichloropropane (DCP), 1,2-dichloro-butane (DCB) and 1,2,3-trichloropropane (TCP) cultures were first inoculated from slants into 25 mL nutrient media in a 125 mL flask and grown overnight. Five mL were inoculated into 50 mL of MM1X4P containing 5 g/L disodium succinate in a 250 mL flask. Following 4 hours of growth and again at 8 hours, 10 μl of 1-chlorobutane was added for induction of the dehalogenase. Following 24 hours growth, cells were harvested by centrifugation and resuspended into 50 mL of fresh sterile MM1X4P and transferred to a sterile 250 mL shake flask equipped with a bulb feeder as described by Gibson, et al., supra. DCP, DCB, and TCP were added to bulb feeders and reaction progress monitored by gas chromatography (GC). Throughout the protocol, volumes were modified as needed to provide higher concentrations of cells and/or to provide identical batches of induced cells for comparative studies.
For gas chromatography (GC) analysis of halogenated metabolites, cultures were centrifuged briefly to remove cells, saturated with sodium sulfate, and an equivalent volume of methylene chloride added. The suspension was vortexed vigorously, centrifuged to break the emulsion and the methylene chloride phase removed.
Analysis of all halocarbon substrates and products from culture broths was done by GC using a Hewlett Packard 5710 equipped with a 7671A Autoinjector with the following protocol:
Analysis for optical activity of microbially produced 2,3-dichloro-1-propanol was determined independently using two methods. Polarimetry was performed using a Horiba SEPA 200 polarimeter, and optical rotations were compared to a standard curve to provide an estimate of enantiomeric excess. Gas chromatographic separation of 2,3-dichloro-1-propanol enantiomers was done using a 5 percent phenyl silicone/95 percent methyl silicone column (DB-5 column, J&J scientific) following formation of diesteromeric monoesters with S(+)-2-phenyl butyric acid. Enantiomeric composition of DCP, DCB, and respective halohydrins can also be monitored using a derivatized cyclodexdrin gas chromatography column (CHIRALDEX™ type B-TA Column, Advanced Separation Technologies, Inc.). Enantiomeric excess was determined by a comparison of peak areas.
The double mutants were evaluated for conversion of DCP, DCB, and TCP following growth on succinate in the presence of 1-chlorobutane as an inducer of the dehalogenase. There was no substantial difference with respect to overall rate or product selectivity by the double mutants. […] The in vivo rates of conversion for DCP vs. DCB vs. TCP were 0.30, 1.29, and 1.06 mg product/g dry cells/hr, respectively. […] In contrast, DCP is preferentially dehalogenated at the secondary carbon with approximately a 3 to 1 selectivity.
DCP and DCB are racemic mixtures, whereas TCP is an achiral meso compound. […] Optical activity was not expected nor observed in the halohydrin products from 1,2-DCP and 1,2-DCB. […] Furthermore, when ADH negative mutants were induced with 1-chlorobutane and then presented with TCP, 2,3-dichloro-1-propanol accumulates transiently but then completely disappears as glycidol begins to accumulate. […] The observation was confirmed by isolating the 2,3-dichloro-1-propanol generated from TCP by a double mutant and examining optical activity by polarimetry and GC.

[1] = 2,3-dichloro-1-propanol generated from TCP by a double mutant

SMILES: CC(Cl)CCl (stereo not shown) [1,2-dichloropropane]
- preferential conversion of one enantiomer: no indication of preferential conversion of one enantiomer over the other
- selectivity of dehalogenation site (primary vs secondary carbon) (double mutants): 3 to 1

SMILES: ClCC(Cl)CCl [1,2,3-trichloropropane]
- selectivity of dehalogenation site (primary vs secondary carbon) (double mutants): exclusively dehalogenated at the primary carbon

SMILES: CCC(Cl)CCl (stereo not shown) [1,2-dichlorobutane]
- preferential conversion of one enantiomer: no indication of preferential conversion of one enantiomer over the other
- share dehalogenated at the secondary carbon (double mutants): 3%

SMILES: OCC(Cl)CCl (stereo not shown) [2,3-dichloro-1-propanol]
- Enantiomeric excess by GC analysis of diastereomers [1]: 41%
- Enantiomeric excess by polarimetry [1]: 31%
